Assay results published in PubChem BioAssay AID720711 (National Center for Advancing Translational Sciences (NCATS), 2013).
In all, about 360,000 compounds went through this assay and about 290 (0.081%) were called active. This list was built around the results that the source calls inconclusive (neither active nor inactive); the mix of calls is not that of the screen. Calls come from the whole dose curve; as a rule, active = well fitted activation curve with a large enough effect; inconclusive = small, poorly fitted or top-dose-only effect; inactive = no such curve, though single readings can be large or run the other way. A potency beside an inconclusive call is a rough fit, not a confirmed value.

The chains behind the UniProt entries cited, without tags or fusion partners.
UniProt Q8WZA2, whole entry, looked up: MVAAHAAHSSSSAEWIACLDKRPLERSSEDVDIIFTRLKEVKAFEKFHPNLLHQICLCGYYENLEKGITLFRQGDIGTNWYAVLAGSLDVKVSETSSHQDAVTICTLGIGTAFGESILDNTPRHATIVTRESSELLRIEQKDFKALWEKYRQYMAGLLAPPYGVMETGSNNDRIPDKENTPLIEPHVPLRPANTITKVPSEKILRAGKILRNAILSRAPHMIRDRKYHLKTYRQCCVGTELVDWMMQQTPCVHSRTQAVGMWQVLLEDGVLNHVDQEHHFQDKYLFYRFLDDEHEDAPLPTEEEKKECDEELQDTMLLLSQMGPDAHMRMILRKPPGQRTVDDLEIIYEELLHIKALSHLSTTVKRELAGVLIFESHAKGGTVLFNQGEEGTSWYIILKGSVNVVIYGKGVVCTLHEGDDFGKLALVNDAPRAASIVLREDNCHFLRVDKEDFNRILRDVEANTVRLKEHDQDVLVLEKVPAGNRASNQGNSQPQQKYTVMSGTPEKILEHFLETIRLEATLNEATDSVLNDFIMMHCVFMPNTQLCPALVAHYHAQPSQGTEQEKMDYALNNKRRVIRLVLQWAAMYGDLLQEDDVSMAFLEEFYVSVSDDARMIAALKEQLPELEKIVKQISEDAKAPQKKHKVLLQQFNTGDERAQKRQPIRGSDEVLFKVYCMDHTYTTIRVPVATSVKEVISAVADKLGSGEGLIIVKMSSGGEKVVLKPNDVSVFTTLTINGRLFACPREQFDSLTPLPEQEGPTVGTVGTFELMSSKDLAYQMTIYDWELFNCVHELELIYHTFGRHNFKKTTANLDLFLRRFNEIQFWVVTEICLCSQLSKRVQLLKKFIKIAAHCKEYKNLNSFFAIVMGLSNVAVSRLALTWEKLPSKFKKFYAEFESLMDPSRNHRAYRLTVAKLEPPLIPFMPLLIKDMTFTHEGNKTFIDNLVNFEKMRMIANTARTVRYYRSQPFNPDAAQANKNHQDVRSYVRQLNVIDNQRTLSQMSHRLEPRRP

molecular target: Rap guanine nucleotide exchange factor 4 (Homo sapiens) (UniProt Q8WZA2); assay: qHTS for Agonist of cAMP-regulated guanine nucleotide exchange factor 4 (EPAC2): primary screen; conditions: biochemical qHTS; Potency: EPAC2 activation unless noted; activation: at 154 µM (top of the series), 100% = 6.5 mM cAMP response unless noted; note: nearly all actives have a fitted effect of over 50% in size
How it was run: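 Nucleotide exchange monitored as fluorescence drop when BODIPY-GDP leaves Rap1B. Reaction: 100 nM EPAC2, 250 nM RAP1B-BODIPY-GDP, 50 uM GDP, room temperature, kinetic read over 30 min. Activity expressed relative to 6.5 mM cAMP.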
Potency is the fitted concentration of half-maximal effect.

SMILES | Potency | activation
CC(C)N1CCc2c(sc(NC(=O)c3ccc(C(=O)c4ccccc4)cc3)c2C(N)=O)C1 | inconclusive: 35.5 µM [activator, partial curve, poor fit] | 
Cc1cc(NS(=O)(=O)c2ccc(NC(=O)CCc3ccccc3)cc2)no1 | inconclusive: 28.2 µM [activator, single point] | 
COc1ccc(NS(=O)(=O)c2ccc3oc4ccccc4c3c2)cn1 | inconclusive: 63.1 µM [activator, partial curve] | 
COc1ccc(OC)c(/C=C2\SC(=S)N(Cc3cccnc3)C2=O)c1 | active: 112 µM | 
COc1ccc(NC2=NCCC2)cc1 | inconclusive: 126 µM [activator, single point] | 
CN(C)S(=O)(=O)c1ccc2c(c1)C(=O)c1cc(S(=O)(=O)N(C)C)ccc1CC2 |  | inactive: 9.83%
Cc1nc(N)sc1-c1csc(Nc2ncccn2)n1 | inconclusive: 100 µM [activator, partial curve] | 
O=C(NCC1CCCO1)c1ccc(Cl)c(S(=O)(=O)Nc2ccccc2)c1 (centres undefined) | inconclusive: 126 µM [activator, single point] | 
CCCCn1c(=O)[nH]c2nc3cc(N)ccc3nc2c1=O | active: 100 µM | 
Cc1n[nH]c(C)c1CS(=O)(=O)c1ccccc1 | inconclusive: 126 µM [activator, partial curve] | 
CN(C)CCN(C(=O)c1ccc2ccccc2c1)c1nc2cc3c(cc2s1)OCO3 | inconclusive: 126 µM [activator, partial curve] | 
CN(C)c1ccc(/C=C2\CCC/C(=C\c3ccccc3)C2=O)cc1 | inconclusive: 100 µM [activator, partial curve] | 
O=C1c2ccccc2S(=O)(=O)c2cc(N3CCC(C(=O)N4CCCCC4)CC3)ccc21 | active: 25.1 µM | 
O=C(NCc1cccnc1)c1cc(Sc2cccc(Cl)c2)nc2ccccc12 | inconclusive: 112 µM [activator, partial curve] | 
COc1cc2c(cc1NC(=O)CSc1nnc(Cc3cccs3)n1C)oc1ccccc12 | inconclusive: 4.47 µM [activator, full curve, poor fit] | 
COc1cc(C2C(C#N)=C(N)Oc3cc(N(C)C)ccc32)cc2c1OCO2 (centres undefined) | inconclusive: 89.1 µM [activator, partial curve] | 
Nc1ccc2nc(-c3cc(Cl)c(N)c(Cl)c3)[nH]c2c1 | inconclusive: 89.1 µM [activator, partial curve] | 
COCCN1C(=O)CSCC1(C)C(=O)NCc1ccccc1 (centres undefined) |  | inactive: 2.11%
COc1ccc(N2CCN(c3cc(C)c4ccc(C)cc4n3)CC2)cc1 | inconclusive: 126 µM [activator, partial curve, poor fit] | 
CCC(C)NC(=O)CN1C(=O)c2cccc3cccc1c23 (centres undefined) |  | inactive: 11%
Cc1cccc(N2C(=O)c3cccc4c(N(C)CCO)ccc(c34)C2=O)c1 | active: 100 µM | 
O=C1C=CC(O)C2(CO)OC12 (centres undefined) |  | inactive: 3.31%
COc1cccc(C(O)c2ncc(-c3cccc4ccccc34)[nH]2)c1 (centres undefined) |  | inactive: 19.6%

A second format for part of the listing above:

| SMILES | Potency | activation |
| --- | --- | --- |
| Cc1cc(NS(=O)(=O)c2ccc(NC(=O)CCc3ccccc3)cc2)no1 | inconclusive: 28.2 µM [activator, single point] |  |
| COc1ccc(NS(=O)(=O)c2ccc3oc4ccccc4c3c2)cn1 | inconclusive: 63.1 µM [activator, partial curve] |  |
| COc1ccc(OC)c(/C=C2\SC(=S)N(Cc3cccnc3)C2=O)c1 | active: 112 µM |  |
| COc1ccc(NC2=NCCC2)cc1 | inconclusive: 126 µM [activator, single point] |  |
| CN(C)S(=O)(=O)c1ccc2c(c1)C(=O)c1cc(S(=O)(=O)N(C)C)ccc1CC2 |  | inactive: 9.83% |
| Cc1nc(N)sc1-c1csc(Nc2ncccn2)n1 | inconclusive: 100 µM [activator, partial curve] |  |
| O=C(NCC1CCCO1)c1ccc(Cl)c(S(=O)(=O)Nc2ccccc2)c1 (centres undefined) | inconclusive: 126 µM [activator, single point] |  |
| CCCCn1c(=O)[nH]c2nc3cc(N)ccc3nc2c1=O | active: 100 µM |  |
| Cc1n[nH]c(C)c1CS(=O)(=O)c1ccccc1 | inconclusive: 126 µM [activator, partial curve] |  |
| CN(C)CCN(C(=O)c1ccc2ccccc2c1)c1nc2cc3c(cc2s1)OCO3 | inconclusive: 126 µM [activator, partial curve] |  |
| CN(C)c1ccc(/C=C2\CCC/C(=C\c3ccccc3)C2=O)cc1 | inconclusive: 100 µM [activator, partial curve] |  |
| O=C1c2ccccc2S(=O)(=O)c2cc(N3CCC(C(=O)N4CCCCC4)CC3)ccc21 | active: 25.1 µM |  |
| O=C(NCc1cccnc1)c1cc(Sc2cccc(Cl)c2)nc2ccccc12 | inconclusive: 112 µM [activator, partial curve] |  |
| COc1cc2c(cc1NC(=O)CSc1nnc(Cc3cccs3)n1C)oc1ccccc12 | inconclusive: 4.47 µM [activator, full curve, poor fit] |  |
| COc1cc(C2C(C#N)=C(N)Oc3cc(N(C)C)ccc32)cc2c1OCO2 (centres undefined) | inconclusive: 89.1 µM [activator, partial curve] |  |
| Nc1ccc2nc(-c3cc(Cl)c(N)c(Cl)c3)[nH]c2c1 | inconclusive: 89.1 µM [activator, partial curve] |  |
| COCCN1C(=O)CSCC1(C)C(=O)NCc1ccccc1 (centres undefined) |  | inactive: 2.11% |
| COc1ccc(N2CCN(c3cc(C)c4ccc(C)cc4n3)CC2)cc1 | inconclusive: 126 µM [activator, partial curve, poor fit] |  |
| CCC(C)NC(=O)CN1C(=O)c2cccc3cccc1c23 (centres undefined) |  | inactive: 11% |
| Cc1cccc(N2C(=O)c3cccc4c(N(C)CCO)ccc(c34)C2=O)c1 | active: 100 µM |  |
| O=C1C=CC(O)C2(CO)OC12 (centres undefined) |  | inactive: 3.31% |

(listing goes on)

SMILES | Potency | activation
Cc1nn(-c2ccccc2)c(N2CCCC2)c1/C=C1\N=C(c2ccc(F)cc2)OC1=O | inconclusive: 63.1 µM [activator, partial curve] | 
COc1ccccc1NC(=O)c1ccc(CN2CCOCC2)cc1 | inconclusive: 7.94 µM [activator, partial curve] | 
CCN(CC)c1ccc(/C=N/OCC(=O)Nc2cccc(C)c2)cc1 | inconclusive: 100 µM [activator, single point] | 
Nc1cc(Cl)ccc1Oc1ccc2ccccc2c1 | inconclusive: 112 µM [activator, partial curve] | 
CN1CCc2nc3sc(C(=O)C45CC6CC(CC(C6)C4)C5)c(N)c3cc2C1 | inconclusive: 79.4 µM [activator, partial curve] | 
Cc1ccc(OC(=O)N(C)C[C@@H]2OCc3cn(nn3)CCCC(=O)N([C@H](C)CO)C[C@H]2C)cc1 | inconclusive: 3.55 µM [activator, full curve, poor fit] | 
COc1ccc(C=C2NC(=O)NC2=O)cc1O | inconclusive: 35.5 µM [activator, single point] | 
CC(C)(C)c1ccccc1OCCCCN1CCCC1 |  | inconclusive: 62.9% [activator] [at 15.6 µM, 100% = 6.5 mM cAMP response]
COc1ccc(CCN2C(=S)N(C)C(=O)C2CC(=O)Nc2ccc(F)cc2)cc1 (centres undefined) | inconclusive: 89.1 µM [activator, partial curve] | 
CC1(C(=O)NS(=O)(=O)C2CC2)CCCN(C(=O)c2cc3ccccc3s2)C1 (centres undefined) |  | inactive: 11.8%
NC1(C#Cc2ccc3oc(=O)c(-n4cc(-c5ccsc5)nn4)cc3c2)CCCCC1 | inconclusive: 50.1 µM [activator, partial curve] | 
O=C(O)c1ccccc1-c1c2cc(I)c(=O)c(I)c-2oc2c(I)c(O)c(I)cc12 | active: 100 µM | 
COc1cccc(C(=O)Nc2ccccc2-c2ccccc2)c1 | inconclusive: 63.1 µM [activator, partial curve] | 
Oc1sc(C=Nc2ccccc2)c2ccccc12 | inconclusive: 126 µM [activator, single point] | 
O=C(Nc1ccc2c(c1)OCCO2)C(c1ccncc1)n1c(=O)c(-c2cc3ccccc3[nH]2)nc2ccccc21 (centres undefined) |  | inactive: 16.8%
CCOC(=O)c1cccc(NC(=O)c2cnc3ccccc3n2)c1 | inconclusive: 100 µM [activator, partial curve] | 
CCOc1cc(N2CCOCC2)c(OCC)cc1NC1=NCCCCC1 |  | inactive: -7.04%
CCn1c2ccccc2c2cc(NC(=O)CSc3nnc(-c4cccc(C)c4)o3)ccc21 | inconclusive: 112 µM [activator, single point] | 
O=C1c2ccccc2-c2onc3ccc(NCc4ccco4)c1c23 | inconclusive: 126 µM [activator, single point] | 
O=C(N/N=C/c1ccncc1)c1ccc(NC(=O)c2cccc(Cl)c2)cc1 | inconclusive: 39.8 µM [activator, partial curve] | 
C=CCNC(=O)c1onc(CSc2ccc(Cl)cc2)c1C(=O)NCC=C | inconclusive: 35.5 µM [activator, full curve, poor fit] | 
CC(=O)Nc1ccc(NC(=O)CCC(=O)OCC(=O)c2ccc(C)c([N+](=O)[O-])c2)cc1 | inconclusive: 31.6 µM [activator, single point] | 
CCCn1nc(NC(=O)c2cccs2)c2cc3ccccc3nc21 | inconclusive: 89.1 µM [activator, partial curve] | 

SMILES | Potency | activation
OC1C2CN3CCN(C2)CC1(Cc1ccccc1)C3 (centres undefined) |  | inconclusive: 48.5% [activator] [at 15.6 µM, 100% = 6.5 mM cAMP response]
COCCn1c(-c2ccc(-c3ccccc3Cl)o2)nc2c1c(=O)[nH]c(=O)n2CC(C)C |  | inactive: -2.67%
Cc1cc(C(=O)N/N=C/c2cc(Br)cc(Br)c2OC(=O)c2cccc(F)c2)n[nH]1 |  | inactive: -5.7%
COC(=O)Cc1cc(=O)n2[nH]c(C(F)(F)F)nc2n1 |  | inactive: 0.594%
COc1cccc(-c2cc(C(=O)NCc3cccs3)no2)c1 | inconclusive: 15.8 µM [activator, partial curve] | 
CCN(CC)CCN(C(=O)/C=C/c1cccs1)c1nc2ccc(Cl)cc2s1 |  | inactive: 10%
O=C(c1ccccc1F)N1CCCC(C(=O)N2CCN(c3ccccc3)CC2)C1 (centres undefined) | inconclusive: 126 µM [activator, single point] | 
COc1ccc(CNC(=O)c2c(C)cc(=O)oc2C)cc1OC |  | inconclusive: 106% [activator] [at 15.6 µM, 100% = 6.5 mM cAMP response]
CCCC[C@@]1(C2CCCC2)Cc2cc(OCC(=O)O)c(Cl)c(Cl)c2C1=O |  | inactive: -2.84%
Cc1ccc(C2C3CSCC=C3C(C#N)=C(N)C2(C#N)C#N)cc1 (centres undefined) | inconclusive: 100 µM [activator, partial curve] | 
O=C1NC(=O)C2(N1)C(=O)c1cccc3cccc2c13 (centres undefined) | inconclusive: 39.8 µM [activator, partial curve] | 
C/C(O)=C\c1nc2ccccc2oc1=O |  | inactive: 10.2%
O=C1/C(=C\c2cc(Cl)c(O)c(Cl)c2)SC(=S)N1Cc1ccccc1 | inconclusive: 126 µM [activator, single point] | 
O=c1oc2c3c4c(cc2c(C(F)(F)F)c1CCN1CCOCC1)CCCN4CCC3 | active: 112 µM | 
CCN1/C(=C/C=C/c2oc3ccc4ccccc4c3[n+]2CC)Oc2ccc3ccccc3c21 | inconclusive: 12.6 µM [activator, full curve, poor fit] | 
Cc1ccc(CS(=O)(=O)c2ncc(Cl)c(C(=O)Nc3ccc(OC(F)F)cc3)n2)cc1 |  | inactive: -18.5%
Cc1ccccc1N=Cc1cc2c(cc1O)OC(N)=C(C#N)C2c1ccccc1 (centres undefined) | inconclusive: 44.7 µM [activator, partial curve, poor fit] | 
Cn1c(CCNC(=O)c2ccco2)nc2cc(NC(=O)c3ccco3)ccc21 |  | inactive: 3.57%
Fc1ccc(NC(=S)Nc2cc(-c3ccccc3)[nH]n2)cc1Cl |  | inactive: 12.3%
COc1ccc(CCN2C(=O)C(Oc3ccccc3C)C2c2ccc3c(c2)OCO3)cc1OC (centres undefined) |  | inconclusive: 34.5% [activator] [at 15.6 µM, 100% = 6.5 mM cAMP response]
CCCCCOc1ccc(CN2CCOCC2)cc1Cl |  | inactive: 12.1%
CCOc1ccc2c(c1)-c1c(ssc1=S)C(C)(C)N2C(=O)CSC1=NCCS1 | inconclusive: 100 µM [activator, single point] | 
O=C(Nc1ccc2nc(-c3ccc4nc[nH]c4c3)[nH]c2c1)c1cccs1 | inconclusive: 56.2 µM [activator, partial curve] | 
